This is one part of the list.
tested on: T1, CTL2-GFP (C. trachomatis L2/434/Bu, GFP-expressing); parameters: species or system HeLa; Intracellular C. trachomatis growth in HeLa cells, bulk GFP fluorescence relative to DMSO; details: bulk GFP, single well; 28.5 h, 10 µM; inhibitor
T1 construct: L2/434/Bu, GFP-expressing

| Structure (SMILES) | % of control remaining [%] |
| --- | --- |
| Cc1nc2ccc(C(=O)N(C)CCN(C)C)cn2c1N(C)C(=O)c1cccs1 [CBK146528] | 90.4107 |
| O=C(O)CCc1ccc(-c2cccs2)n1CCc1ccccc1 [CBK265983] | 70.5605 |
| c1ccc(-c2oc3ncn4nc(COc5cccc6ccccc56)nc4c3c2-c2ccccc2)cc1 [CBK262898] | 100 |
| CN(Cc1ccc(-c2ccc(S(C)(=O)=O)cc2)nc1)C1CCN(C(=O)CC(F)(F)F)CC1 [CBK164098T] | 117.032 |
| c1cc(Sc2nccnc2N2CCCC2)ccn1 [CBK093807] | 111.318 |
| O=C(OCCCc1cccnc1)c1cc(=O)[nH]c2ccccc12 [CBK295631] | 132.715 |
| c1ccc(-c2cc3nccc(-c4ccccc4)n3n2)cc1 [CBK287871] | 101.647 |
| O=c1[nH]c2ncc(-c3cccc4ccccc34)nc2n1Cc1cccnc1 [CBK064274] | 136.393 |
| O=C(c1ccco1)N1CCN(c2cncc(-c3cccs3)n2)CC1 [CBK065518] | 129.052 |
| N#Cc1cn(Cc2ccco2)c(=O)[nH]c1=O [CBK010407] | 175.678 |
| O=C1N=C(NC2C3CC4CC(C3)CC2C4)OC12CCCC2 (stereo not shown) [CBK113576] | 108.514 |
| CN1C[C@@H](NC(=O)NCc2ccccc2)C[C@H]1c1nc(-c2cncnc2)no1 [CBK288878] | 135.368 |
| COC(=O)C1CCN(C(=O)c2ccc(Oc3cccc(Br)c3)nc2)CC1 [CBK304235] | 110.188 |
| CC(=O)NC(c1ccccn1)C1CCCN(C(=O)C(C)(C)C)C1 (stereo not shown) [CBK285101] | 137.093 |
| NC(=O)c1cccc(-n2ncc(-c3cccnc3)n2)c1 [CBK112806] | 108.849 |
| COCCNS(=O)(=O)c1ccc(Br)c(C(=O)N(C)Cc2cnn(C)c2)c1 [CBK304795] | 176.123 |
| COc1cc(C)c(Nc2cccc(-c3ccc(O)cc3)n2)cc1OC [CBK037608] | 49.5536 |
| CNCc1ccccc1Sc1cccc(OC)c1 [CBK026207C] | 96.2892 |
| CC(C)(C)c1cc(C(=O)NCC2CCCN2)n(Cc2ccc(Cl)cc2Cl)n1 (stereo not shown) [CBK115920C] | 63.1957 |
| COc1ccccc1-c1nccnc1NCc1ccccn1 [CBK036894] | 105.316 |
| CN1CCCN(c2cncc(-c3ccc4c(c3)OCO4)n2)CC1 [CBK065978] | 181.053 |
| CCOC(=O)c1sc(NC(=O)CCNC(=O)c2ccccc2C(=O)O)c(C#N)c1C [CBK295152] | 96.3419 |

Another view of some results above:
Structure (SMILES)	% of control remaining [%]
CN1CCCN(c2cncc(-c3ccc4c(c3)OCO4)n2)CC1 [CBK065978]	181.053
CCOC(=O)c1sc(NC(=O)CCNC(=O)c2ccccc2C(=O)O)c(C#N)c1C [CBK295152]	96.3419

From paper PMC12040169 (PLOS Biology, 2025)
